# No constants are given. Whether binding was seen depends on the method and setting.
# Molecular target: Tubulin Polymerization Promoting Protein (TPPP/p25), human recombinant with hexaHis tag (human) (UniProt O94811)
# Test: ELISA; plate coated with 5 μg/ml mCherry-LC3B, TPPP/p25 or SYN, blocked with BSA; HeLa cell extract at various concentrations; bound endogenous SQSTM1/p62 detected by SQSTM1/p62 antibody; only the target purified
substance,measurement,value
endogenous sequestosome 1 (SQSTM1/p62) from HeLa cell extract (from UniProt Q13501 1-440),binding,no binding

# From PMC8167055
